Results are given in words; binding and its absence hold for the method and conditions named. For some assays here: Binding seen in cells or lysates may run through a third protein.

One molecule from paper PMC3400576 can be followed below.

Experiment [1] deals with T1, PRG-1 (C. elegans Piwi-type Ago protein) (C. elegans (endogenous in embryos)) (UniProt P90786).
T1 sequence: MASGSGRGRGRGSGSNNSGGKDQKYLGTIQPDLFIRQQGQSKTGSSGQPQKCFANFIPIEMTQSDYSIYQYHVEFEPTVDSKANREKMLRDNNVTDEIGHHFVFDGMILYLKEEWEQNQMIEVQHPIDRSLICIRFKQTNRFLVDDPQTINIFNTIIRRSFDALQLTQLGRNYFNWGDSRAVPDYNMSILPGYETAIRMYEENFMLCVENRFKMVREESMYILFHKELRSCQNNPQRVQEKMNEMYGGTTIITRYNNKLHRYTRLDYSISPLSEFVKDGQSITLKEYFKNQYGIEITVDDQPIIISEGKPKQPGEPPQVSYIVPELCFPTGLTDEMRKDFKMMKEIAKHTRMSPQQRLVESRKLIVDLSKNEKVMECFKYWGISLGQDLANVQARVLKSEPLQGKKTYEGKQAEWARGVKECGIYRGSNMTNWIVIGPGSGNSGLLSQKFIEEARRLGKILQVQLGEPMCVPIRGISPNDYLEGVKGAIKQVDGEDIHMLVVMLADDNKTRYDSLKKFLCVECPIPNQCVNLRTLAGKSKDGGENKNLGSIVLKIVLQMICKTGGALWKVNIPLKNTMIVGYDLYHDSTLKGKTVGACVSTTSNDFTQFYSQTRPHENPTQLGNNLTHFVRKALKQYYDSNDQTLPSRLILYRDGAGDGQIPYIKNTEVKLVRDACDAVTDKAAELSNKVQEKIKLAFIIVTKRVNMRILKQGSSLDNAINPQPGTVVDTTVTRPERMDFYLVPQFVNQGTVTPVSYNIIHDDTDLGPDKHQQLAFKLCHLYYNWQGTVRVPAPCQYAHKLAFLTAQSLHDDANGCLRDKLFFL
Kind of experiment: co-IP; co-IP of HENN-1 and PRG-1; told only in the discussion, no details given.

The target of experiment [2] is T1, PRG-1 (C. elegans Piwi-type Ago protein) (C. elegans (endogenous in embryos)). Kind of experiment: SEC; C. elegans embryonic extracts on a size-exclusion column; fractions analysed by Western blot for HENN-1 and PRG-1. For orientation: Size exclusion chromatography separates by hydrodynamic size, large species first.

B1: HENN-1 (C. elegans HEN1 homolog, C02F5.6) (protein, UniProt P34283 1-442)
chain: MAHTSDGWGAPYDNQTYVEAYEQLEIALLEPLDRILETANVEEFRPKFKNHQDPNDRKNKKNNDEEWRDSIYNIATDESDTDDHEQRKNFFQPPLQVQRNSFVKNTLMEFKRSSQIDISRLAVMGCGEMSLEKGICEYLGSFGTINVLSVDIDEPSLSIGQQLLGKHLERNAEILAVETGLPVLMRSYVGDILEPDHRFADVDAIVSMEVVEHIPLPNAKKFVENVLGTLMPRIFIFSTPNHEYNAVFGMEPGEFRHGDHKFEMNRKEFSNWLEELSIRFPHYQIDPPHYIGMTRGYENLSGASQAAVCRLQVDLNTTLPQEVTPYEMVGHLPCRLGSRLIAYNLVKEAFLDWLEKIELQEHEPRTDGYSPYWIFNVQNILHHLKAPVSFALTIDEKVAIKYIQGMTSRKVHAEYSHGFNGIVILQMHSKEELIKTVQDNTL
B1: the binding entry in experiment [1] and in experiment [2] was “no binding” each time.
